The list is a part of this screen's results and no random one: it is rich in T/C values a quarter to a half above the control, in often repeated tests (any T/C) and in doses without a T/C. Other doses and runs of a compound stand elsewhere. T/C: endpoint of the treated group in % of that of the vehicle group. Schedule codes are those of the source, read here as Q, the interval in days (D) or hours (H), X, the number of doses. Some T/C values are followed by the survivors on the day toxicity was checked, most often the fifth; where none is given, no animal had died by that day. Some doses have a count of surviving animals in place of a T/C: the source files T/C as zero there, which appears to mark a toxic dose or a test without result, not a measured value. Survivors were counted at the toxicity check, usually on the fifth day, unless a day is given; later deaths do not show. Some entries were tested several times; the results are listed from low to high.
System: CD8F1 mice, subcutaneous mammary adenocarcinoma, T/C%
Assay: NCI In Vivo Anticancer Drug Screen. Data for tumor model Mammary Adenocarcinoma CD8F1 (subcutaneous) in CD8F1
Details: T/C endpoint: median tumor weight change, schedule: Q01DX001 (ip), higher T/C = larger tumour
Outline: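 Tumor-bearing mice, transplantable model; readout survival or tumor size; value = treated (T) / vehicle control (C).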

[1] = dose: 500.0 mg/kg/injection, vehicle: saline
[2] = dose: 1000.0 mg/kg/injection, vehicle: saline
[3] = dose: 2000.0 mg/kg/injection, vehicle: saline

CCCCNc1ccc2nnc(C)n2n1
T/C (dose: 62.5 mg/kg/injection, vehicle: other, evaluated on day 32): 140 % of control
T/C (dose: 125.0 mg/kg/injection, vehicle: other, evaluated on day 32): 145 % of control [9 of 10 alive on day 32]
T/C (dose: 250.0 mg/kg/injection, vehicle: DMSO, evaluated on day 30): 133 % of control [7 of 10 alive on day 30]
survivor count (dose: 250.0 mg/kg/injection, vehicle: other): 0 of 10 on day 32
survivor count (dose: 500.0 mg/kg/injection, vehicle: DMSO): 3 of 10 on day 30
survivor count (dose: 500.0 mg/kg/injection, vehicle: other): 0 of 10 on day 32
survivor count (dose: 1000.0 mg/kg/injection, vehicle: DMSO): 1 of 10 on day 30
survivor count (dose: 1000.0 mg/kg/injection, vehicle: other): 0 of 10 on day 32

Cc1nnc2ncccn12
T/C (dose: 125.0 mg/kg/injection, vehicle: saline, evaluated on day 27): 125 % of control
survivor count [1]: 6 of 10 on day 27
survivor count [2]: 0 of 10 on day 27
survivor count [3]: 0 of 10 on day 27

COc1ccc2[nH]c3ccc4cc[n+](CCN5CCC(C6CCN(CC[n+]7ccc8ccc9[nH]c%10ccc(OC)cc%10c9c8c7)CC6)CC5)cc4c3c2c1
survivor count (dose: 250.0 mg/kg/injection, vehicle: Klucel (hydroxypropylcellulose) (HPC)): 6 of 10 on day 27
survivor count (dose: 500.0 mg/kg/injection, vehicle: Klucel (hydroxypropylcellulose) (HPC)): 0 of 10 on day 27
survivor count (dose: 1000.0 mg/kg/injection, vehicle: Klucel (hydroxypropylcellulose) (HPC)): 0 of 10 on day 27

O=C1C(NCCO)=C(N2CC2)C(=O)C(NCCO)=C1N1CC1
T/C (dose: 0.63 mg/kg/injection, vehicle: saline, evaluated on day 28): 140 % of control
T/C (dose: 1.25 mg/kg/injection, vehicle: saline, evaluated on day 28): 136 % of control
survivor count (dose: 5.0 mg/kg/injection, vehicle: saline): 0 of 10 on day 32 and 4 of 10 on day 39
survivor count (dose: 10.0 mg/kg/injection, vehicle: saline): 0 of 10 on day 32 and 0 of 10 on day 39

CONc1ccn(C2OC(CO)C(O)C2O)c(=O)n1 (centres undefined)
survivor count [1]: 5 of 10 on day 35
survivor count [2]: 0 of 10 on day 35
survivor count [3]: 0 of 10 on day 35
survivor count (dose: 4000.0 mg/kg/injection, vehicle: saline): 0 of 10 on day 35

O=C1NC2(CCCCC2)C(=O)N1CCN(CCCl)CCCl
survivor count (dose: 75.0 mg/kg/injection, vehicle: saline with Tween-80): 5 of 10 on day 29 and 5 of 10 on day 35
survivor count (dose: 150.0 mg/kg/injection, vehicle: saline with Tween-80): 1 of 10 on day 29 and 1 of 10 on day 35
survivor count (dose: 300.0 mg/kg/injection, vehicle: saline with Tween-80): 0 of 10 on day 29

O=c1[nH]cnc2[nH]ncc12
survivor count (dose: 500.0 mg/kg/injection, vehicle: suspension in saline): 1 of 10 on day 33
survivor count (dose: 1000.0 mg/kg/injection, vehicle: suspension in saline): 0 of 10 on day 33
survivor count (dose: 2000.0 mg/kg/injection, vehicle: suspension in saline): 0 of 10 on day 33
